Source: PubChem BioAssay AID493014 (National Center for Advancing Translational Sciences (NCATS), 2011)
The list shows a part of the results. These are further read-outs of the screen, such as a control signal, another cell line or another target. No call is given for them. The list favours compounds with an active or inconclusive main result. Words in brackets tell the shape of the fitted curve; partial curves, single points and poor fits give uncertain potencies.

Test: qHTS Assay to Find Inhibitors of Chronic Active B-Cell Receptor Signaling
Conditions: ABC-DLBCL IkBa-CBG/CBR reporter, luminescence ratio (green luciferase fused to IkBa over red control in TMD8 lymphoma cells), 4 h
Procedure, shortened: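 TMD8 human ABC-DLBCL cells with doxycycline-inducible IκBα–green luciferase fusion and unfused red luciferase, in 0.5% FBS medium; compounds up to 46 uM, 4 h at 37C. Green/red luminescence ratio, filter-overlap corrected, fitted to concentration-response curves.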

[1] = measured here: CBR red luminescence, cell number
[2] = measured here: IkBa-CBG green luminescence

SMILES	AC50 [1]	AC50 [2]
COC(=O)c1sc(NC(=O)/C=C/c2ccc(C)cc2)nc1C	13 µM [falling, partial curve]	
O=C1CCCN1S(=O)(=O)c1ccccc1	3.16 µM [rising, partial curve, poor fit]	
Cc1ccc(NC(=O)Nc2ccc3c(c2)N(C)C(=O)CS3)nc1	25.9 µM [rising, partial curve, poor fit]	
CCN(c1ccccc1)S(=O)(=O)c1ccc(Cl)c(NC(=O)CN(C)C2CCN(C)CC2)c1	35.5 µM [falling, single point]	
NS(=O)(=O)c1ccc(N=Nc2ccc(=O)[nH]c2O)cc1	0.562 µM [falling, full curve, poor fit]	
COC(=O)c1ccc(NC(=S)NC(=O)c2c(-c3ccccc3)noc2C)cc1	22.4 µM [rising, single point]	
O=C(CSc1ccc(-c2ccccn2)nn1)Nc1nccs1	6.31 µM [falling, single point]	
CCCn1nc(C(=O)Nc2nnc(C3CC3)s2)c2ccccc2c1=O	2.06 µM [rising, partial curve, poor fit]	
O=C1CCCC2=C1C1(O)C(=O)c3ccccc3C1(O)O2 (stereo not given)	6.51 µM [rising, single point]	
CCN(CC)CCNCC1C(=O)O[C@@H]2C[C@@]3(C)CCC[C@H](C)C3=C[C@H]12 (stereo not given in full)	15.8 µM [falling, partial curve]	
Cc1nc(NCCCN2CCOCC2)c2oc3ccccc3c2n1		14.1 µM [rising, partial curve, poor fit]
CCS(=O)(=O)NCC(c1ccco1)N1CCN(c2ccccc2)CC1 (stereo not given)	3.66 µM [rising, single point]	
COc1cc(/C=N/NC(=O)c2ccc3c(c2)OCCO3)c(Br)c(Br)c1O	7.08 µM [falling, partial curve]	
CCc1cccc(NC(=O)Cn2cc(C=O)c3ccccc32)c1	0.794 µM [falling, full curve, poor fit]	
Cc1ccccc1NS(=O)(=O)c1cc(C(=O)Nc2ccccc2-c2ccccc2)ccc1Cl	23.1 µM [falling, single point]	25.9 µM [rising, partial curve, poor fit]
O=C(/C=C\c1ccc(-c2ccccc2)o1)c1ccccc1	8.2 µM [falling, partial curve]	
O=C(CCSc1nc(-c2ccco2)cc(C(F)(F)F)n1)N1CCCc2ccccc21	6.51 µM [falling, single point]	
Cc1cccc(NC(=O)C2C3C=CC(O3)C2C(=O)O)c1C (stereo not given)	1.12 µM [rising, full curve, poor fit]	
CCCc1cc(-n2ccnc2)n2c(nc3ccccc32)c1C#N	0.291 µM [rising, full curve, poor fit]	
CC(=O)Nc1cccc(C(=O)N/N=C/c2ccccc2F)c1	18.4 µM [falling, single point]	
Cc1ccc(-n2cc(CNC(C)c3cnn(C)c3)c(-c3ccc(F)cc3)n2)cc1 (stereo not given)	17.8 µM [falling, single point]	

Some of these compounds in order of molar mass, low to high:
SMILES	AC50 [1]	AC50 [2]
Cc1nc(NCCCN2CCOCC2)c2oc3ccccc3c2n1		14.1 µM [rising, partial curve, poor fit]
Cc1ccc(-n2cc(CNC(C)c3cnn(C)c3)c(-c3ccc(F)cc3)n2)cc1 (stereo not given)	17.8 µM [falling, single point]	
Cc1ccccc1NS(=O)(=O)c1cc(C(=O)Nc2ccccc2-c2ccccc2)ccc1Cl	23.1 µM [falling, single point]	25.9 µM [rising, partial curve, poor fit]

More compounds

SMILES	AC50 [1]	AC50 [2]
O=C(NC(=S)NCc1nc2ccccc2[nH]1)c1ccc(F)cc1	14.1 µM [rising, partial curve, poor fit]	
CN(c1ccccc1)S(=O)(=O)c1cccc(NC(=O)Cc2ccc(Cl)cc2)c1	29.1 µM [falling, single point]	
Cc1cccc(NC(=O)[C@H](Cc2ccccc2)NC(=O)OCc2ccccc2)c1	18.4 µM [rising, partial curve]	
CCCOc1c(Cl)cc(C(=O)Nc2ccc3c(c2)OCO3)cc1OCC	20.6 µM [falling, partial curve, poor fit]	
COC(=O)c1c(C)[nH]c(C(=O)COC(=O)c2c(C)noc2C)c1C	0.461 µM [rising, full curve, poor fit]	
O=C(CCS(=O)(=O)c1ccc(Cl)cc1)Nc1ccccc1Br	22.4 µM [rising, single point]	
COc1cc(C(CCN2CCOCC2)c2c(OC)cc(OC)c3c(C)cc(=O)oc23)cc(OC)c1OC (stereo not given)	35.5 µM [falling, single point]	
C/C(=N/NC(=O)c1cc(-c2cccc([N+](=O)[O-])c2)n[nH]1)c1ccc(Cl)cc1	1.03 µM [rising, full curve, poor fit]	
Cc1ccc(NC(=O)c2cc(-c3ccc(F)cc3)on2)cc1C	0.355 µM [falling, full curve]	
CCOc1ccc2nc(NC(=O)CSc3ccc(Cl)cc3)sc2c1	20.6 µM [rising, partial curve, poor fit]	
N#CC1=C(SCC(=O)c2ccc(Br)cc2)NC2=C(C(=O)CCC2)C1c1ccco1 (stereo not given)	11.2 µM [falling, partial curve]	
CC(=O)c1ccc(NC(=O)COC(=O)Cc2ccsc2)cc1	2.06 µM [rising, partial curve, poor fit]	
CCNC(=S)N/N=C(\C)c1ccc(N2CCOCC2)cc1	9.2 µM [falling, partial curve]	
CSCCC(NC(=O)c1ccco1)C(=O)N1CCCC(C(F)(F)F)C1 (stereo not given)	0.146 µM [falling, full curve, poor fit]	
COc1cc2cc(CN(Cc3cccs3)C(=S)Nc3ccccc3)c(=O)[nH]c2cc1OC	3.26 µM [falling, full curve, poor fit]	
O=C(COC(=O)C1=COCCO1)Nc1ccc(Br)cc1Br	3.66 µM [rising, full curve, poor fit]	
CN(C)c1ccc2nc3c(=O)[nH]c(=O)nc-3n(CC(O)C(O)C(O)CO)c2c1 (stereo not given)	22.4 µM [rising, single point]	
CCCCC1CCC(C(=O)Nc2ccc(S(=O)(=O)Nc3nccs3)cc2)CC1 (stereo not given)	4.61 µM [falling, partial curve, poor fit]	
COc1ccccc1-c1c(C)nn2c(N3CCN(c4ccc(F)cc4)CC3)cc(C)nc12	10 µM [falling, partial curve, poor fit]	
O=C(c1ccccc1)c1ccc(OCCCN2CCCCC2)cc1	5.17 µM [rising, partial curve, poor fit]	
CCC/C=N/Nc1nc2ccccc2s1	12.6 µM [falling, partial curve]	

SMILES	AC50 [1]	AC50 [2]
Cc1cccc(Nc2nc(N3CCCCC3)nc(N3CCCCC3)n2)c1	32.6 µM [rising, single point]	
CCOC(=O)N1C=CC=C[C@@H]2[C@@H](N3C(=O)c4ccccc4C3=O)C(=O)N21	2.59 µM [rising, full curve]	
COc1ccc2nc(C)cc(N3CC(C)OC(C)C3)c2c1 (stereo not given)	3.66 µM [falling, full curve, poor fit]	
COc1ccc(C(=O)N(Cc2nc(-c3ccc(C)cc3)no2)C2CCCCC2)cc1OC	2.91 µM [rising, partial curve, poor fit]	
Fc1ccc(CN2CCN(c3ncnc4scc(-c5ccccc5)c34)CC2)cc1	35.5 µM [falling, partial curve, poor fit]	
O=C(Nc1ccc2ncccc2c1)c1cccc(Br)c1	20 µM [falling, single point]	
COC(=O)[C@H](Cc1ccccc1)N1C/C=C\COc2c(Cl)cc(Cl)cc2S1(=O)=O		5.8 µM [rising, partial curve, poor fit]
COc1ccc(C)cc1NC(=O)c1ccc(N(C)S(C)(=O)=O)cc1	16.4 µM [rising, single point]	
CC1(C)Cc2c(sc3c2C(=O)N(c2ccccc2)C2=NCCN23)CS1	0.1 µM [rising, full curve, poor fit]	
C/C(CC(=O)Nc1ccc(N(C)C)cc1)=N\NC(=O)c1ccc(Cl)cc1	28.2 µM [falling, single point]	
O=C(CNc1cc(S(=O)(=O)N2CCOCC2)ccc1N1CCCC1)N1CCc2ccccc21	10 µM [rising, partial curve]	
COc1cccc(NC(=O)Cn2c(=O)oc3ccccc32)c1	5.8 µM [falling, full curve, poor fit]	
CCc1nnc(NC(=O)C(C)Sc2ccccc2)s1 (stereo not given)	16.4 µM [rising, partial curve]	
CCCc1nc(-c2ccc(-c3ccc(F)cc3)cc2)no1	6.31 µM [rising, partial curve, poor fit]	
Cc1cc(C(=O)CSc2nc3ccccc3o2)c(C)n1CC1CCCO1 (stereo not given)	20.6 µM [rising, single point]	
O=C(CN1CCOCC1)Nc1cc([N+](=O)[O-])ccc1Cl	17.8 µM [rising, partial curve, poor fit]	
CC(=O)c1ccc(OCc2cc(C(=O)NC(C)c3cnn(C)c3)no2)cc1 (stereo not given)	28.2 µM [rising, single point]	
CCCn1c(CN2CCCCC2C)nc2c1c(=O)n(C)c(=O)n2C (stereo not given)	20.6 µM [falling, partial curve, poor fit]	
Cc1c(S(=O)(=O)N2CCN(c3cccc(C(F)(F)F)c3)CC2)c(=O)n(C)c(=O)n1C	0.291 µM [rising, full curve, poor fit]	
Cc1nn(CCO)c(N)c1C1(O)C(=O)Nc2c(Cl)cc(Cl)cc21 (stereo not given)	22.4 µM [rising, single point]	35.5 µM [falling, single point]
COc1cccc(C2CC(c3ccc(Br)cc3)=NN2C(=O)c2ccncc2)c1OC (stereo not given)	12.6 µM [falling, partial curve]	
